This data set in a line: general procedure: solution-phase peptide synthesis; DCC/HOBt; EDC hydrochloride/HOBt. The note with it: late stage modification step, acetate.

As for “Boc (D)-Phe-Cys (Acm)-Tyr-(D) Trp-Lys(Boc)-Val-OH”, the “crude HPLC purity” value is 73% and the step yield result was “Yield=43.7%”.

As to “2TFA-(D)-Phe-Cys (Trt)-Tyr-(D) Trp-Lys-Val-Cys (Trt)-Trp-NH2”, the “crude HPLC purity” value is given as 22% and the step yield result is “Yield=75%”.

Values taken from US20070111930 (published 2007).
